Reference: publication PMC10805788
No constants are given. Whether binding was seen depends on the method and setting. In cells and extracts the contact can be indirect. A yes stands for co-enrichment or nearness to the bait. Other partners may have been found. For part of these data: No binding means not detected with the bait. Sequences can lack the tags named with a protein.

How the values were obtained:
[1] = target: T1, Rh1-TurboID fusion protein (Rh1::TbID) (Drosophila melanogaster) (UniProt P06002); test: proximity labelling; Rh1::TbID^wt flies against wild-type control, white light 12 h; membrane proteins (RIPA) pulled down with streptavidin magnetic beads, SDS-PAGE, silver-stained bands excised, in-gel trypsin digest, LC-MS/MS; at least five peptides and >= threefold more peptides than control; two experiments
T1 sequence: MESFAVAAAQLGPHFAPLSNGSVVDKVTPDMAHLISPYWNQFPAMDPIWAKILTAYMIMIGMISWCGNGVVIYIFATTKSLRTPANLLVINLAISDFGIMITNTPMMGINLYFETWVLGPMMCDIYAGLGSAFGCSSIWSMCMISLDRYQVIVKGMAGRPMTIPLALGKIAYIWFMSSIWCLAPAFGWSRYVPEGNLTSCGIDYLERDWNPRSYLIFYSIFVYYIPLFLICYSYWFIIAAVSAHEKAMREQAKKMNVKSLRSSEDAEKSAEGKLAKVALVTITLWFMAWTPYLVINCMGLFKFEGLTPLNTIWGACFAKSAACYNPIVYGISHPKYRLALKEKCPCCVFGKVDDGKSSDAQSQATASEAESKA

[2] = target: T1, Rh1-TurboID fusion protein (Rh1::TbID) (Drosophila melanogaster); test: condition: only flies kept in the dark (rhodopsin not light-activated); proximity labelling; as a1, but flies kept in the dark (no metarhodopsin); streptavidin-HRP blot of head extracts
[3] = target: T1, Rh1-TurboID fusion protein (Rh1::TbID) (Drosophila melanogaster); test: proximity labelling; Rh1::TbID flies against wild-type control; streptavidin pull-down of soluble and membrane proteins, on-bead trypsin digest, LC-MS/MS with label-free quantification, triplicate; p < 0.05 and fold change > 2
[4] = target: T1, Rh1-TurboID fusion protein (Rh1::TbID) (Drosophila melanogaster); test: proximity labelling; Rh1::TbID^wt flies against wild-type control, white light 12 h; membrane proteins (RIPA) pulled down with streptavidin magnetic beads, SDS-PAGE, silver-stained bands excised, in-gel trypsin digest, LC-MS/MS; at least five peptides and >= threefold more peptides than control; two experiments; remark: listed apart in the source
[5] = target: T1, Rh1-TurboID fusion protein (Rh1::TbID) (Drosophila melanogaster); test: proximity labelling; TurboID fused to Rh1 in R1-6 photoreceptors of living flies (100 uM biotin in the food); flies illuminated with blue light (2 min to 4 h; native Rh1 band also seen in the dark); head extracts or soluble/membrane fractions on 12% SDS gels, blots probed with streptavidin-HRP; backgrounds wild type, ninaE17, arr2-3, ninaA2

## ER Membrane Protein Complex 1 (EMC1)
[1]
  binding: binds

B1: arrestin 2 (protein, UniProt P19107 1-401)
chain: MVVSVKVFKKATPNGKVTFYLGRRDFIDHIDYCDPVDGVIVVEPDYLKNRKVFGQLATTYRYGREEDEVMGVKFSKELILCREQIVPMTNPNMEMTPMQEKLVRKLGSNAYPFTFHFPPNSPSSVTLQQEGDDNGKPLGVEYTIRAFVGDSEDDRQHKRSMVSLVIKKLQYAPLNRGQRLPSSLVSKGFTFSNGKISLEVTLDREIYYHGEKTAATVQVSNNSKKSVKSIKCFIVQHTEITMVNAQFSKHVAQLETKEGCPITPGANLTKTFYLIPLAANNKDRHGIALDGHLKDEDVNLASSTMVQEGKSTGDACGIVISYSVRIKLNCGTLGGEMQTDVPFKLLQPAPGTIEKKRSNAMKKMKSIEQHRNVKGYYQDDDDNIVFEDFAKMRMNNVNMAD
[2]
  binding: no binding
[3]
  binding: binds
[4]
  binding: binds
[5]
  binding: binds

B2: Oxysterol Binding Protein Orp8 (protein, UniProt B7Z0M9 1-957)
chain: MNLLQRIANWASDNRDGNVADKSAADAAKLNRKESYKAQRKNYRREKKRVASELMNSLQDPAVIVLADWLKVRGTLKSWTKLWCVLKPGLLLIYKSQKTKSSHWVGTVMLTSCQVIERPSKKDGFCFKLFHPLEQSIWAPRGPDKETIGAVVQPLPTAYLIFRAPSQAAGKCWMDALELSLRCSALLLRSNSSTGTAPTSSYIGEPLPVSHETQWSEADYEKHFNDHGKWAQFLALPSAEVDTSRSDTSLSAPRTPTPLLQQLYTSAVSNWERTKRLPRFGHQSEQRKTSYSDASSAEQGVGVGLSLLQRKRRHLSPMSKSMSLGATLCNSSSSEDEDEGYNHSQTGLRPVSAPPDCLMMPRFRLNVKDLDADSQNEAPNAVMSGLESESESDPAEPAQDDVVDQQCVETSYVPFTEEEFGEQGEQVEELAEENKSLIWCIVKQVRPGMDLSKVVLPTFILEPRSFLDKLSDSYYHADLLSKAVQEDDAFTRMKLVVQWYLSSFYKKPKGLKKPYNPILGERFRCYWQHPSGSRTFYIAEQVSHHPPVSAFYVTNREDGFSITCSILAKSKFYGNSTSAVLEGAATMTLLPRGECYTATTPYAHCKGILMGTLSMELGGKINIECENTGYRTELEFKLKPFLGGADATNVVVGKIKLGKETLATINGHWDKECRVKDSKTGEETVLFKVDAETRSKRLTRYMVPLDLQEANESQRLWQRVSEAIANEDQVAATEEKTVLEERQRADAKERLSSDSVHMPDLFELDSYGQWLYKYADLRPWDSRNDVRQYECQFKVLTQTRHKSVPIVHGAEMIHPLRSSIETLSRTQRQSPAGQPLPPGGSAVPKAKNKSLVLAPRDTNSDSSQSPQGAVKRSSSSAIKQLALAVDQVNRVLEQHTRQLNEISQRLERMQYSPPPSSMSAHSLHMLGGGVSQSTVIKSLIYALIGLAFSLILRWLFK
[4]
  binding: binds
